# Experimental data reported in the supplement of paper PMC8728848.
# This is one part of the list.
# How the values were obtained:
# Assay in all cases: glycan array binding signal (z-score within array); higher = stronger binding
# Conditions in all cases: glycan notation: IUPAC condensed, linker removed
# [1] = molecular target: GlcNAc(b1-3)Gal(b1-4)GlcNAc(b1-3)Gal(b1-4)GlcNAc(b1-2)Man(a1-3)[GlcNAc(b1-3)Gal(b1-4)GlcNAc(b1-3)Gal(b1-4)GlcNAc(b1-2)Man(a1-6)]Man(b1-4)GlcNAc(b1-4)[Fuc(a1-6)]GlcNAc
# Method in brief: (§1)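 Arrays were curated from the Consortium for Functional Glycomics database, 3228 in total, and kept only where the protein sequence was available. Binding is expressed as a within-array Z-score. This score was averaged across arrays of the same protein sequence at different concentrations or buffers and across linkers, and negative values can be read as non-binding.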
# [2] = molecular target: GlcNAc(b1-3)Gal(b1-4)GlcNAc(b1-3)Gal(b1-4)GlcNAc(b1-2)[GlcNAc(b1-3)Gal(b1-4)GlcNAc(b1-3)Gal(b1-4)GlcNAc(b1-6)]Man(a1-6)[GlcNAc(b1-3)Gal(b1-4)GlcNAc(b1-3)Gal(b1-4)GlcNAc(b1-2)Man(a1-3)]Man(b1-4)GlcNAc(b1-4)[Fuc(a1-6)]GlcNAc
# Method in brief: as §1
# [3] = molecular target: GlcNAc(b1-3)Gal(b1-4)GlcNAc(b1-3)Gal(b1-4)GlcNAc(b1-3)Gal(b1-4)GlcNAc(b1-2)Man(a1-3)[GlcNAc(b1-3)Gal(b1-4)GlcNAc(b1-3)Gal(b1-4)GlcNAc(b1-3)Gal(b1-4)GlcNAc(b1-2)Man(a1-6)]Man(b1-4)GlcNAc(b1-4)GlcNAc
# Method in brief: as §1
# [4] = molecular target: GlcNAc(b1-3)Gal(b1-4)GlcNAc(b1-3)Gal(b1-4)GlcNAc(b1-3)Gal(b1-4)GlcNAc(b1-2)Man(a1-3)[GlcNAc(b1-3)Gal(b1-4)GlcNAc(b1-3)Gal(b1-4)GlcNAc(b1-3)Gal(b1-4)GlcNAc(b1-2)Man(a1-6)]Man(b1-4)GlcNAc(b1-4)[Fuc(a1-6)]GlcNAc
# Method in brief: as §1
# [5] = molecular target: GlcNAc(b1-3)Gal(b1-4)GlcNAc(b1-3)Gal(b1-4)GlcNAc(b1-3)Gal(b1-4)GlcNAc(b1-2)[GlcNAc(b1-3)Gal(b1-4)GlcNAc(b1-3)Gal(b1-4)GlcNAc(b1-3)Gal(b1-4)GlcNAc(b1-6)]Man(a1-6)[GlcNAc(b1-3)Gal(b1-4)GlcNAc(b1-3)Gal(b1-4)GlcNAc(b1-3)Gal(b1-4)GlcNAc(b1-2)Man(a1-3)]Man(b1-4)GlcNAc(b1-4)[Fuc(a1-6)]GlcNAc
# Method in brief: as §1
# [6] = molecular target: GlcNAc(b1-3)Gal(b1-4)GlcNAc(b1-3)Gal(b1-4)GlcNAc(b1-3)Gal(b1-4)GlcNAc(b1-3)Gal(b1-4)GlcNAc(b1-2)Man(a1-3)[GlcNAc(b1-3)Gal(b1-4)GlcNAc(b1-3)Gal(b1-4)GlcNAc(b1-3)Gal(b1-4)GlcNAc(b1-3)Gal(b1-4)GlcNAc(b1-2)Man(a1-6)]Man(b1-4)GlcNAc(b1-4)GlcNAc
# Method in brief: as §1
# [7] = molecular target: GlcNAc(b1-3)Gal(b1-4)GlcNAc(b1-3)Gal(b1-4)GlcNAc(b1-3)Gal(b1-4)GlcNAc(b1-3)Gal(b1-4)GlcNAc(b1-2)Man(a1-3)[GlcNAc(b1-3)Gal(b1-4)GlcNAc(b1-3)Gal(b1-4)GlcNAc(b1-3)Gal(b1-4)GlcNAc(b1-3)Gal(b1-4)GlcNAc(b1-2)Man(a1-6)]Man(b1-4)GlcNAc(b1-4)[Fuc(a1-6)]GlcNAc
# Method in brief: as §1
# [8] = molecular target: GlcNAc(b1-3)Gal(b1-4)GlcNAc(b1-3)Gal(b1-4)GlcNAc(b1-3)Gal(b1-4)GlcNAc(b1-3)Gal(b1-4)GlcNAc(b1-2)[GlcNAc(b1-3)Gal(b1-4)GlcNAc(b1-3)Gal(b1-4)GlcNAc(b1-3)Gal(b1-4)GlcNAc(b1-3)Gal(b1-4)GlcNAc(b1-6)]Man(a1-6)[GlcNAc(b1-3)Gal(b1-4)GlcNAc(b1-3)Gal(b1-4)GlcNAc(b1-3)Gal(b1-4)GlcNAc(b1-3)Gal(b1-4)GlcNAc(b1-2)Man(a1-3)]Man(b1-4)GlcNAc(b1-4)[Fuc(a1-6)]GlcNAc
# Method in brief: as §1
# [9] = molecular target: GlcNAc(b1-3)Gal(b1-4)GlcNAc(b1-3)Gal(b1-4)GlcNAc(b1-3)GalNAc
# Method in brief: as §1
# [10] = molecular target: GlcNAc(b1-3)Gal(b1-4)GlcNAc(b1-3)GalNAc
# Method in brief: as §1
# [11] = molecular target: GlcNAc(b1-3)Gal(b1-4)GlcNAc(b1-3)[GlcNAc(b1-3)Gal(b1-4)GlcNAc(b1-3)]GalNAc
# Method in brief: as §1
# [12] = molecular target: GlcNAc(b1-3)Gal(b1-4)GlcNAc(b1-6)[Gal(b1-3)]GalNAc
# Method in brief: as §1
# [13] = molecular target: GlcNAc(b1-3)Gal(b1-4)GlcNAc(b1-6)[GlcNAc(b1-3)Gal(b1-3)]GalNAc
# Method in brief: as §1
# [14] = molecular target: GlcNAc(b1-3)Gal(b1-4)GlcNAc(b1-6)[GlcNAc(b1-3)]Gal(b1-4)GlcNAc
# Method in brief: as §1
# GlcNAc(b1-3)GalNAc = molecular target: GlcNAc(b1-3)GalNAc
# Method in brief: as §1
# GlcNAc(b1-3)Man = molecular target: GlcNAc(b1-3)Man
# Method in brief: as §1
# [15] = molecular target: GlcNAc(b1-3)[GlcNAc(b1-4)][GlcNAc(b1-6)]GlcNAc
# Method in brief: as §1
# [16] = molecular target: GlcNAc(b1-3)[GlcNAc(b1-6)]Gal(b1-4)GlcNAc
# Method in brief: as §1
# [17] = molecular target: GlcNAc(b1-3)[GlcNAc(b1-6)]GalNAc
# Method in brief: as §1
# [18] = molecular target: GlcNAc(b1-4)Gal(b1-4)GlcNAc
# Method in brief: as §1
# GlcNAc(b1-4)GlcNAc = molecular target: GlcNAc(b1-4)GlcNAc
# Method in brief: as §1
# [19] = molecular target: GlcNAc(b1-4)GlcNAc(b1-4)GlcNAc
# Method in brief: as §1
# [20] = molecular target: GlcNAc(b1-4)GlcNAc(b1-4)GlcNAc(b1-4)GlcNAc(b1-4)GlcNAc
# Method in brief: as §1
# [21] = molecular target: GlcNAc(b1-4)GlcNAc(b1-4)GlcNAc(b1-4)GlcNAc(b1-4)GlcNAc(b1-4)GlcNAc
# Method in brief: as §1
# [22] = molecular target: GlcNAc(b1-4)[GlcNAc(b1-6)]GalNAc
# Method in brief: as §1
# [23] = molecular target: GlcNAc(b1-6)Gal(b1-4)GlcNAc
# Method in brief: as §1
# GlcNAc(b1-6)GalNAc = molecular target: GlcNAc(b1-6)GalNAc
# Method in brief: as §1
# [24] = molecular target: GlcNAc6S(b1-3)Gal(b1-4)GlcNAc
# Method in brief: as §1
# Kdn(a2-3)Gal(b1-3)GalNAc = molecular target: Kdn(a2-3)Gal(b1-3)GalNAc
# Method in brief: as §1
# Kdn(a2-3)Gal(b1-3)GlcNAc = molecular target: Kdn(a2-3)Gal(b1-3)GlcNAc
# Method in brief: as §1
# Kdn(a2-3)Gal(b1-4)Glc = molecular target: Kdn(a2-3)Gal(b1-4)Glc
# Method in brief: as §1
# Kdn(a2-3)Gal(b1-4)GlcNAc = molecular target: Kdn(a2-3)Gal(b1-4)GlcNAc
# Method in brief: as §1
# [25] = molecular target: Kdn(a2-3)Gal(b1-4)[Fuc(a1-3)]GlcNAc
# Method in brief: as §1
# Kdn(a2-6)Gal(b1-4)GlcNAc = molecular target: Kdn(a2-6)Gal(b1-4)GlcNAc
# Method in brief: as §1
# [26] = molecular target: Man(a1-2)Man(a1-2)Man(a1-3)Man
# Method in brief: as §1
# [27] = molecular target: Man(a1-2)Man(a1-2)Man(a1-6)[Man(a1-3)]Man
# Method in brief: as §1
# Man(a1-2)Man(a1-3)Man = molecular target: Man(a1-2)Man(a1-3)Man
# Method in brief: as §1
# [28] = molecular target: Man(a1-2)Man(a1-3)[Man(a1-2)Man(a1-6)]Man
# Method in brief: as §1
binder,measurement,setting,value
SynCAM (Mus musculus) (protein) MASAVLPSGSQCAAAAAVAAAAAPPGLRLRLLLLLLSAAALIPTGDGQNLFTKDVTVIEGEVATISCQVNKSDDSVIQLLNPNRQTIYFRDFRPLKDSRFQLLNFSSSELKVSLTNVSISDEGRYFCQLYTDPPQESYTTITVLVPPRNLMIDIQKDTAVEGEEIEVNCTAMASKPATTIRWFKGNKELKGKSEVEEWSDMYTVTSQLMLKVHKEDDGVPVICQVEHPAVTGNLQTQRYLEVQYKPQVHIQMTYPLQGLTREGDAFELTCEAIGKPQPVMVTWVRVDDEMPQHAVLSGPNLFINNLNKTDNGTYRCEASNIVGKAHSDYMLYVYDPPTTIPPP,glycan array binding signal (z-score),[1],1.01
same,glycan array binding signal (z-score),[2],1.76
same,glycan array binding signal (z-score),[3],0.618
same,glycan array binding signal (z-score),[4],0.941
same,glycan array binding signal (z-score),[5],-0.072
same,glycan array binding signal (z-score),[6],-0.581
same,glycan array binding signal (z-score),[7],1.8
same,glycan array binding signal (z-score),[8],1.86
same,glycan array binding signal (z-score),[9],-0.165
same,glycan array binding signal (z-score),[10],-0.428
same,glycan array binding signal (z-score),[11],0.925
same,glycan array binding signal (z-score),[12],-0.753
same,glycan array binding signal (z-score),[13],0.804
same,glycan array binding signal (z-score),[14],-1.19
same,glycan array binding signal (z-score),GlcNAc(b1-3)GalNAc,-0.668
same,glycan array binding signal (z-score),GlcNAc(b1-3)Man,0.179
same,glycan array binding signal (z-score),[15],2.58
same,glycan array binding signal (z-score),[16],1.34
same,glycan array binding signal (z-score),[17],-0.659
same,glycan array binding signal (z-score),[18],0.326
same,glycan array binding signal (z-score),GlcNAc(b1-4)GlcNAc,-1.17
same,glycan array binding signal (z-score),[19],-0.747
same,glycan array binding signal (z-score),[20],-0.79
same,glycan array binding signal (z-score),[21],0.16
same,glycan array binding signal (z-score),[22],0.059
same,glycan array binding signal (z-score),[23],-0.073
same,glycan array binding signal (z-score),GlcNAc(b1-6)GalNAc,-0.705
same,glycan array binding signal (z-score),[24],-0.791
same,glycan array binding signal (z-score),Kdn(a2-3)Gal(b1-3)GalNAc,-0.628
same,glycan array binding signal (z-score),Kdn(a2-3)Gal(b1-3)GlcNAc,-0.746
same,glycan array binding signal (z-score),Kdn(a2-3)Gal(b1-4)Glc,-0.173
same,glycan array binding signal (z-score),Kdn(a2-3)Gal(b1-4)GlcNAc,-0.047
same,glycan array binding signal (z-score),[25],-1.11
same,glycan array binding signal (z-score),Kdn(a2-6)Gal(b1-4)GlcNAc,-0.324
same,glycan array binding signal (z-score),[26],-0.249
same,glycan array binding signal (z-score),[27],0.166
same,glycan array binding signal (z-score),Man(a1-2)Man(a1-3)Man,-0.614
same,glycan array binding signal (z-score),[28],-0.536

# An excerpt of these results, bar-delimited.
binder | measurement | setting | value
SynCAM (Mus musculus) (protein) MASAVLPSGSQCAAAAAVAAAAAPPGLRLRLLLLLLSAAALIPTGDGQNLFTKDVTVIEGEVATISCQVNKSDDSVIQLLNPNRQTIYFRDFRPLKDSRFQLLNFSSSELKVSLTNVSISDEGRYFCQLYTDPPQESYTTITVLVPPRNLMIDIQKDTAVEGEEIEVNCTAMASKPATTIRWFKGNKELKGKSEVEEWSDMYTVTSQLMLKVHKEDDGVPVICQVEHPAVTGNLQTQRYLEVQYKPQVHIQMTYPLQGLTREGDAFELTCEAIGKPQPVMVTWVRVDDEMPQHAVLSGPNLFINNLNKTDNGTYRCEASNIVGKAHSDYMLYVYDPPTTIPPP | glycan array binding signal (z-score) | GlcNAc(b1-3)GalNAc | -0.668
same | glycan array binding signal (z-score) | [24] | -0.791
